Measured values as given in patent US20200095327A1 (DRAGONFLY THERAPEUTICS, published 2020).
Results are given in words; binding and its absence hold for the method and conditions named. Some entries that bind do so weakly or less than the wild type.

Amino acid sequences for entries named in this document (tags omitted). Residues count along the entry.
UniProt P20138, residues 18-364: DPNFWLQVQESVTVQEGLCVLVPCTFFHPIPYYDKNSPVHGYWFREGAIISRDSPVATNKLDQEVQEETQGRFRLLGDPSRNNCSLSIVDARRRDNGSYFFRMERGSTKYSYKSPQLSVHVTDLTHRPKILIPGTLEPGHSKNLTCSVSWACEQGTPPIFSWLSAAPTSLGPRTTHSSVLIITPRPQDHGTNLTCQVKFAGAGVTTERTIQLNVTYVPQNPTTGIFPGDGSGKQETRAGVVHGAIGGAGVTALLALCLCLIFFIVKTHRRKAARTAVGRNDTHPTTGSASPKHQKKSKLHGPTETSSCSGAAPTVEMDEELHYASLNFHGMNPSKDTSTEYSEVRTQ

Target: T1, CD33 expressed on MV4-11 human AML cells (human, UniProt P20138 18-364)
T1 construct: whole, on cells; also called cell-expressed CD33
Experiment: flow cytometry on MV4-11 cells, MFI fold over background

binding: binds
B1: parental anti-CD33 monoclonal antibody (antibody, V domains shown)
VH: QVQLVQSGAEVKKPGASVKVSCKASGYTFTDYVVHWVRQAPGQGLEWMGYINPYNDGTKYNEKFKGRVTMTRDTSISTAYMELSRLRSDDTAVYYCARDYRYEVYGMDYWGQGTLVTVSS
VL: DIVLTQSPASLAVSPGQRATITCTASSSVNYIHWYQQKPGQPPKLLIYDTSKVASGVPARFSGSGSGTDFTLTINPVEANDTANYYCQQWRSYPLTFGQGTKLEIK
